The target in this assay is T1, His6-TEV-tagged AtGet3dΔ1–57 (pET33b, TA protein capture assay) (Arabidopsis thaliana) (UniProt Q6DYE4).
T1 sequence: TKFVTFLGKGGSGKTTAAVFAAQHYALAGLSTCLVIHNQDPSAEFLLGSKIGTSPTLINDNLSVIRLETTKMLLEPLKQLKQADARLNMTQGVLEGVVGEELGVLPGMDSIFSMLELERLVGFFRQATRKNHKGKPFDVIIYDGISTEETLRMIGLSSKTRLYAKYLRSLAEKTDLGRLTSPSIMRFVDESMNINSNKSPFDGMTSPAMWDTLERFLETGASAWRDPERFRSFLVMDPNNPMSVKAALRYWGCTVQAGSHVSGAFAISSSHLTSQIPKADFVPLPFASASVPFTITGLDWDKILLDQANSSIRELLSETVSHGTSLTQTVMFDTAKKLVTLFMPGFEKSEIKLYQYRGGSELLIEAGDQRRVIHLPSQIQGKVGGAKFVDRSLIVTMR
As to the kind of experiment: pull-down; His6-tagged Get3d co-expressed with MBP-Sbh1 in E. coli; lysate passed over nickel resin, eluted with imidazole; Coomassie SDS-PAGE and Western blot (anti-His5, anti-MBP).

Results are given in words; binding and its absence hold for the method and conditions named. In cells and extracts the contact can be indirect. Some results given as binding are weak or reduced against the parent protein; the word gives no strength. Sequences can lack the tags named with a protein.

B1: maltose-binding protein (MBP)–tagged yeast TA protein Sbh1 (protein, UniProt P52870 1-82)
chain: MSSPTPPGGQRTLQKRKQGSSQKVAASAPKKNTNSNNSILKIYSDEATGLRVDPLVVLFLAVGFIFSVVALHVISKVAGKLF
For B1, the binding entry was “binds”.

The record behind these values is article PMC10248533, “Structures of Get3d reveal a distinct architecture associated with the emergence of photosynthesis” (The Journal of Biological Chemistry, 2023).
